Some results were stated once for a whole list of compounds, not compound by compound.
Tested on: a range of pests
Test: Comparative control of a range of pests
Format: in vivo

Compound | control of a range of pests (at 0.005 ppm) [%] | control of a range of pests (at 0.5 ppm) [%]
Cc1ccc(C(F)(F)F)c(N2C(=O)CS/C2=N\C(=O)NCCc2ccc(-c3ncn(-c4ccc(OC(F)(F)F)cc4)n3)cc2)c1 [Compound H1] | ≥ 80 | 
Cc1ccc(F)c(N2C(=O)CS/C2=N\C(=O)NCCc2cccc(-c3ncn(-c4ccc(OC(F)(F)F)cc4)n3)c2)c1 [Compound N1, reference compound] |  | ≥ 80

From patent publication US20230077362A1 (CORTEVA AGRISCIENCE LLC, priority 2019, published 2023)
